About 7,700 (2.3%) of roughly 330,000 compounds were called active. The shares of active, inactive and inconclusive entries below differ from those in the screen. The call rests on the fitted dose curve; in most records, active means well fitted inhibition curve with a large enough effect; inconclusive means small, poorly fitted or top-dose-only effect, or effect the other way; inactive means flat fitted curve, though single readings scatter. Potencies of inconclusive entries are doubtful fits and often do not repeat.
Assay: qHTS screen for small molecules that inhibit ELG1-dependent DNA repair in human embryonic kidney (HEK293T) cells expressing luciferase-tagged ELG1; further: nearly all actives have a fitted effect of over 55% in size
Conditions: HEK293T ELG1-luciferase reporter, luminescence, 16 h, DNA damage induced by 5-fluorouridine; activity change, negative = inhibition: at 46.1 µM (top of the series)
Summary of the method: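 Cells (2,000 per well) received 5-fluorouridine plus test compound or DMSO and were incubated 16 hr at 37 °C, 5% CO2. Luciferase activity was read by luminescence 30 min after ONE-Glo addition; signal suppression marked inhibition of damage-induced ELG1 function.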
On the % scale 0 is the no-effect control and ±100 the full control effect; potency means the concentration at half of the fitted maximal effect.

Row | Structure (SMILES) | activity change, negative = inhibition | Potency
1 | COc1ccc(C2=NOC(C(=O)NCc3ccccc3)C2)cc1 (stereo not drawn) | inactive: 26.4% | –
2 | COc1ccccc1/C=C/C(=O)OCC(=O)Nc1cc(C(F)(F)F)ccc1N1CCOCC1 | – | inconclusive: 5.8 µM [inhibitor, full curve]
3 | CC(SC1=NCCN1S(C)(=O)=O)c1ccccc1 (stereo not drawn) | inactive: 9.06% | –
4 | CCC(C)/C(C)=N/NC(=O)c1ccc(CSc2nc3ccccc3s2)cc1 (stereo not drawn) | – | inconclusive: 18.4 µM [activator, partial curve]
5 | CC(=O)/C(=N/Nc1ccccc1Cl)Sc1nnc(C(O)c2ccccc2)n1-c1ccccc1 (stereo not drawn) | inactive: 4.94% | –
6 | COc1ccc(OC)c(CNn2c(-c3ccccc3F)nc3ccccc3c2=O)c1 | – | inconclusive: 29.1 µM [inhibitor, single point]
7 | Cc1nn(Cc2cccc(C(=O)NC3CCCCC3)c2)c(C)c1Cl | – | inconclusive: 18.4 µM [inhibitor, single point]
8 | O=C(Nc1nnc(-c2ccccc2)s1)c1cccc(S(=O)(=O)N2CCOCC2)c1 | inactive: 2.31% | –
9 | Cc1ccc(NC(=O)C2C3/C=C\CCCCC32)cc1C (stereo not drawn) | – | inconclusive: 35.5 µM [activator, single point]
10 | CCN(Cc1nc2ccccc2c(=O)[nH]1)C(=O)COc1ccccc1Cc1ccccc1 | inactive: -13.1% | –
11 | CCc1ccc(NC(=O)C(=O)c2cn(CC(=O)N3CCCCC3)c3ccccc23)cc1 | – | inconclusive: 23.1 µM [inhibitor, single point]
12 | Cc1ccccc1C(=O)NC1CCN(C(=O)NC2CCCCC2)CC1 | inactive: 7.39% | –
13 | Nc1[nH]nc2nc(-c3ccccc3)[nH]c(=O)c12 | – | inconclusive: 11.6 µM [activator, partial curve, poor fit]
14 | CCn1ncc2c(OCc3ccc(C#N)cc3)cc(C)nc21 | – | active: 25.9 µM
15 | Cc1ccc(NC(=O)c2nnn(CC(=O)Nc3ccc4c(c3)OCO4)c2N)cc1C | – | inconclusive: 23.1 µM [activator, partial curve, poor fit]
16 | O=C(COC(=O)c1cccnc1Cl)Nc1ncc(Cl)cc1Cl | – | inconclusive: 25.9 µM [activator, partial curve]
17 | Cc1ccc(N(CC(=O)NC2CC2)S(=O)(=O)c2ccccc2)c(C)c1 | inactive: 2.01% | –
18 | Cc1ccc(-c2nnc(-c3ccccc3S(=O)(=O)Cc3ccc(Cl)cc3)o2)cc1 | inactive: -22.4% | –
19 | COc1ccc(NC(=O)CN(C)C(=O)c2ccc3c(c2)OCCO3)cc1 | – | inconclusive: 20.6 µM [activator, single point]
20 | COc1ccc(NC(=O)C(=O)NCCC2CCCCN2S(=O)(=O)c2ccccc2)cc1 (stereo not drawn) | – | inconclusive: 4.11 µM [inhibitor, partial curve]
21 | O=C1N=C(c2ccccc2)S/C1=C\c1cccs1 | – | inconclusive: 18.4 µM [activator, partial curve, poor fit]
22 | CNS(=O)(=O)c1cccc(C(=O)OCC(=O)Nc2ccc(-c3nc4ccc(C)cc4s3)cc2)c1 | – | inconclusive: 1.64 µM [activator, partial curve]
23 | CCN(CC)S(=O)(=O)c1ccc2[nH]cc(C(=O)NCCN3CCCCCC3)c(=O)c2c1 | inactive: 20.4% | –
24 | CC(CN1CCOCC1)OC(=O)C(C)(c1ccccc1)c1ccccc1 (stereo not drawn) | inactive: -26.2% | –

Whole records, looked up by structure:
`Cc1ccc(NC(=O)C2C3/C=C\CCCCC32)cc1C` (stereo not drawn) as listed: Potency: inconclusive: 35.5 µM [activator, single point]
`O=C(COC(=O)c1cccnc1Cl)Nc1ncc(Cl)cc1Cl` as listed: Potency: inconclusive: 25.9 µM [activator, partial curve]

Continued.

Row | Structure (SMILES) | activity change, negative = inhibition | Potency
25 | Cc1cccc(CCNC(=O)CCc2nnc(CCc3ccccc3)o2)n1 | – | inconclusive: 18.3 µM [activator, single point]
26 | Cc1cccc2sc(NC(=O)c3cc(S(=O)(=O)N(C)C)ccc3N3CCCC3)nc12 | – | inconclusive: 16.4 µM [inhibitor, partial curve]
27 | O=S(=O)(NCCN1CCOCC1)c1ccc(F)c(Cl)c1 | inactive: 3.18% | –
28 | Cc1sc2cc3c(c(C(=O)c4ccccc4)[n+]2c1C)-c1cccc2cccc-3c12 | – | active: 23.1 µM
29 | N#CCSc1nnc(COc2ccc3ccccc3c2)o1 | – | inconclusive: 35.5 µM [inhibitor, single point]
30 | Cc1c(N=Nc2c(-c3ccc([N+](=O)[O-])cc3)[nH]n(C(N)=S)c2=O)cccc1[N+](=O)[O-] | – | active: 2.06 µM
31 | O=C(c1cccn(Cc2cccc(Cl)c2)c1=O)N1CCOCC1 | inactive: -6.21% | –
32 | Cc1[nH]c2ccccc2c1/C=N\NC(=O)CNc1ccc2c(c1)OCO2 | inactive: 2.65% | –
33 | Cc1ccc(Cl)c2sc(NC(=O)C3=COCCO3)nc12 | – | inconclusive: 18.3 µM [activator, single point]
34 | COc1ccc(C(=O)NNC(=O)CCC(=O)Nc2cc(C)on2)cc1 | inactive: -1.79% | –
35 | CC(C)(C)c1ccc(/C=N/NC(=S)NCc2ccccc2)cc1 | inactive: -32.3% | –
36 | CC(=O)Nc1cccc2c1C(=O)N(c1ccc(C)cc1)C2=O | – | inconclusive: 16.4 µM [activator, single point]
37 | O=C(Nc1nc(SCc2ccc(F)cc2)ns1)c1ccco1 | – | inconclusive: 23.1 µM [activator, partial curve]
38 | COc1ccc(OC)c2sc(N(CCN(C)C)C(=O)/C=C/c3cccs3)nc12 | – | inconclusive: 18.3 µM [inhibitor, partial curve, poor fit]
39 | CCOC(=O)c1c(C)c(C(=O)NCc2ccco2)c(C)n1CC | – | inconclusive: 29.1 µM [inhibitor, single point]
40 | O=C(Nc1ccc(N2CCN(C(=O)c3ccco3)CC2)cc1)c1ccc(F)cc1 | – | active: 20.6 µM
41 | O=C(Cc1ccccc1)n1nc(-c2ccccc2)nc1NCc1ccco1 | – | inconclusive: 14.6 µM [activator, partial curve]
42 | Cc1nn(Cc2ccc(F)cc2Cl)c(C)c1[N+](=O)[O-] | inactive: -0.728% | –
43 | Cc1ccc(C(=O)NNC(=S)NC(=O)COc2ccccc2)cc1 | inactive: 1.51% | –
44 | O=C(NCCCNC(=O)c1cnccn1)c1ccc(Cl)c(Cl)c1 | – | inconclusive: 14.6 µM [activator, partial curve, poor fit]
45 | CC(C)c1cc(C(=O)N/N=C/c2ccoc2)cs1 | – | inconclusive: 29.1 µM [activator, single point]
46 | Cc1cc(NC(=O)c2c(F)cccc2Cl)n(-c2nc3ccccc3[nH]2)n1 | – | active: 20.6 µM
47 | COc1cccc(CN(C)Cc2cc(=O)oc3cc(O)c(Cl)cc23)c1 | inactive: -20.4% | –
48 | Cc1nc2ccccc2nc(C)c1=NO | – | inconclusive: 11.2 µM [activator, partial curve, poor fit]
